# Assay results as given in article PMC8674265.
# T1: ELM2 and SANT domain-containing protein 1 (ELMSAN1) (human (endogenous in HEK293T and Hela.cl1)) (UniProt Q6PJG2)
# T1 sequence: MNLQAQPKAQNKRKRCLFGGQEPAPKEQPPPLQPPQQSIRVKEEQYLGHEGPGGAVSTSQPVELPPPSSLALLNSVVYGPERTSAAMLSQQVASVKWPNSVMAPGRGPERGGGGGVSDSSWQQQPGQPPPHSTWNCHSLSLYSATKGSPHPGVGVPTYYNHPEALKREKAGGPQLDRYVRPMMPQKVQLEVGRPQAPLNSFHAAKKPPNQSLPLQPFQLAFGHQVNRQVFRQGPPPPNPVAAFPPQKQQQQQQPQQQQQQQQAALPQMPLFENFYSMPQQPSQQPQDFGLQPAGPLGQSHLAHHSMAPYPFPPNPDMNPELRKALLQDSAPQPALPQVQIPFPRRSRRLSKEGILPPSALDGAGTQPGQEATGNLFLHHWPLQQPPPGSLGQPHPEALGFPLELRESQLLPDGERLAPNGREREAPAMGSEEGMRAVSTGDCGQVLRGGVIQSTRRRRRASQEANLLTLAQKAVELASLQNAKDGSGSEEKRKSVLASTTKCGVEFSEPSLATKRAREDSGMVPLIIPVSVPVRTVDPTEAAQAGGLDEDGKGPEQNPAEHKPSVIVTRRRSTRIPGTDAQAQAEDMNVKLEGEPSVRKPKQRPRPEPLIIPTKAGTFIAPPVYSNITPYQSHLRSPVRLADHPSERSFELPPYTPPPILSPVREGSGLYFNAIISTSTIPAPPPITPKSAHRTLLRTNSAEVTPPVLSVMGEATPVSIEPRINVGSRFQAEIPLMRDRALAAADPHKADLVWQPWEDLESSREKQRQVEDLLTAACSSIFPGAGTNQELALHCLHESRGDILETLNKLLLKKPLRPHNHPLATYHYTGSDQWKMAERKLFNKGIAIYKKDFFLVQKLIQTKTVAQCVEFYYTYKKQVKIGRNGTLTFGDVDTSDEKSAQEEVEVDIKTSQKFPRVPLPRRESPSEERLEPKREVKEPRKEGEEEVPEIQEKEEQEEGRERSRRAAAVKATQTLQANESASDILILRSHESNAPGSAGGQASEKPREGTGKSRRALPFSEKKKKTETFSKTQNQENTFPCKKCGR
# Biological target: T1, ELM2 and SANT domain-containing protein 1 (ELMSAN1) (human (endogenous in HEK293T and Hela.cl1))
# Assay: affinity purification with mass spectrometry; HEK293T nuclear extract precipitated with 5 µg rabbit anti-ELMSAN1 antibody and protein A magnetic beads, eluted with 0.5 M ammonium hydroxide, LC-MS/MS; controls water or normal rabbit IgG; enrichment by spectral counts and SAINT (FC-A > 1); four experiments
row,binding,Binder
1,binds,"FTST3 (protein, UniProt Q8IY81 1-847) MGKKGKVGKSRRDKFYHLAKETGYRSRSAFKLIQLNRRFQFLQKARALLDLCAAPGGWLQVAAKFMPVSSLIVGVDLVPIKPLPNVVTLQQDITTERCRQALRKELKTWKVDVVLNDGAPNVGASWVHDAYSQAHLTLMALRLACDFLARGGSFITKVFRSRDYQPLLWIFQQLFRRVQATKPQASRHESAEIFVVCQGFLAPDKVDSKFFDPKFAFKEVEVQAKTVTELVTKKKPKAEGYAEGDLTLYHRTSVTDFLRAANPVDFLSKASEIMVDDEELAQHPATTEDIRVCCQDIRVLGRKELRSLLNWRTKLRRYVAKKLKEQAKALDISLSSGEEDEGDEEDSTAGTTKQPSKEEEEEEEEEQLNQTLAEMKAQEVAELKRKKKKLLREQRKQRERVELKMDLPGVSIADEGETGMFSLSTIRGHQLLEEVTQGDMSAADTFLSDLPRDDIYVSDVEDDGDDTSLDSDLDPEELAGVRGHQGLRDQKRMRLTEVQDDKEEEEEENPLLVPLEEKAVLQEEQANLWFSKGSFAGIEDDADEALEISQAQLLFENRRKGRQQQQKQQLPQTPPSCLKTEIMSPLYQDEAPKGTEASSGTEAATGLEGEEKDGISDSDSSTSSEEEESWEPLRGKKRSRGPKSDDDGFEIVPIEDPAKHRILDPEGLALGAVIASSKKAKRDLIDNSFNRYTFNEDEGELPEWFVQEEKQHRIRQLPVGKKEVEHYRKRWREINARPIKKVAEAKARKKRRMLKRLEQTRKKAEAVVNTVDISEREKVAQLRSLYKKAGLGKEKRHVTYVVAKKGVGRKVRRPAGVRGHFKVVDSRMKKDQRAQQRKEQKKKHKRK"
2,no binding,"SUV39H1 (protein, UniProt O43463 1-412) MAENLKGCSVCCKSSWNQLQDLCRLAKLSCPALGISKRNLYDFEVEYLCDYKKIREQEYYLVKWRGYPDSESTWEPRQNLKCVRILKQFHKDLERELLRRHHRSKTPRHLDPSLANYLVQKAKQRRALRRWEQELNAKRSHLGRITVENEVDLDGPPRAFVYINEYRVGEGITLNQVAVGCECQDCLWAPTGGCCPGASLHKFAYNDQGQVRLRAGLPIYECNSRCRCGYDCPNRVVQKGIRYDLCIFRTDDGRGWGVRTLEKIRKNSFVMEYVGEIITSEEAERRGQIYDRQGATYLFDLDYVEDVYTVDAAYYGNISHFVNHSCDPNLQVYNVFIDNLDERLPRIAFFATRTIRAGEELTFDYNMQVDPVDMESTRMDSNFGLAGLPGSPKKRVRIECKCGTESCRKYLF"

# Results are given in words; binding and its absence hold for the method and conditions named. In cells and extracts the contact can be indirect. Here binding means that the protein was enriched with, or labelled near, the bait; the list need not be complete. No binding means not detected with the bait.
